Test results as given in patent US20250376461A1, “INDAZOLE DERIVATIVES FOR TREATING TRPM3-MEDIATED DISORDERS” (Katholieke Universiteit Leuven, priority 2022, published 2025).

Amino acid sequences for entries named in this document (tags omitted). Residues count along the entry.
UniProt J9SQF3, 1-1709 isoform 12: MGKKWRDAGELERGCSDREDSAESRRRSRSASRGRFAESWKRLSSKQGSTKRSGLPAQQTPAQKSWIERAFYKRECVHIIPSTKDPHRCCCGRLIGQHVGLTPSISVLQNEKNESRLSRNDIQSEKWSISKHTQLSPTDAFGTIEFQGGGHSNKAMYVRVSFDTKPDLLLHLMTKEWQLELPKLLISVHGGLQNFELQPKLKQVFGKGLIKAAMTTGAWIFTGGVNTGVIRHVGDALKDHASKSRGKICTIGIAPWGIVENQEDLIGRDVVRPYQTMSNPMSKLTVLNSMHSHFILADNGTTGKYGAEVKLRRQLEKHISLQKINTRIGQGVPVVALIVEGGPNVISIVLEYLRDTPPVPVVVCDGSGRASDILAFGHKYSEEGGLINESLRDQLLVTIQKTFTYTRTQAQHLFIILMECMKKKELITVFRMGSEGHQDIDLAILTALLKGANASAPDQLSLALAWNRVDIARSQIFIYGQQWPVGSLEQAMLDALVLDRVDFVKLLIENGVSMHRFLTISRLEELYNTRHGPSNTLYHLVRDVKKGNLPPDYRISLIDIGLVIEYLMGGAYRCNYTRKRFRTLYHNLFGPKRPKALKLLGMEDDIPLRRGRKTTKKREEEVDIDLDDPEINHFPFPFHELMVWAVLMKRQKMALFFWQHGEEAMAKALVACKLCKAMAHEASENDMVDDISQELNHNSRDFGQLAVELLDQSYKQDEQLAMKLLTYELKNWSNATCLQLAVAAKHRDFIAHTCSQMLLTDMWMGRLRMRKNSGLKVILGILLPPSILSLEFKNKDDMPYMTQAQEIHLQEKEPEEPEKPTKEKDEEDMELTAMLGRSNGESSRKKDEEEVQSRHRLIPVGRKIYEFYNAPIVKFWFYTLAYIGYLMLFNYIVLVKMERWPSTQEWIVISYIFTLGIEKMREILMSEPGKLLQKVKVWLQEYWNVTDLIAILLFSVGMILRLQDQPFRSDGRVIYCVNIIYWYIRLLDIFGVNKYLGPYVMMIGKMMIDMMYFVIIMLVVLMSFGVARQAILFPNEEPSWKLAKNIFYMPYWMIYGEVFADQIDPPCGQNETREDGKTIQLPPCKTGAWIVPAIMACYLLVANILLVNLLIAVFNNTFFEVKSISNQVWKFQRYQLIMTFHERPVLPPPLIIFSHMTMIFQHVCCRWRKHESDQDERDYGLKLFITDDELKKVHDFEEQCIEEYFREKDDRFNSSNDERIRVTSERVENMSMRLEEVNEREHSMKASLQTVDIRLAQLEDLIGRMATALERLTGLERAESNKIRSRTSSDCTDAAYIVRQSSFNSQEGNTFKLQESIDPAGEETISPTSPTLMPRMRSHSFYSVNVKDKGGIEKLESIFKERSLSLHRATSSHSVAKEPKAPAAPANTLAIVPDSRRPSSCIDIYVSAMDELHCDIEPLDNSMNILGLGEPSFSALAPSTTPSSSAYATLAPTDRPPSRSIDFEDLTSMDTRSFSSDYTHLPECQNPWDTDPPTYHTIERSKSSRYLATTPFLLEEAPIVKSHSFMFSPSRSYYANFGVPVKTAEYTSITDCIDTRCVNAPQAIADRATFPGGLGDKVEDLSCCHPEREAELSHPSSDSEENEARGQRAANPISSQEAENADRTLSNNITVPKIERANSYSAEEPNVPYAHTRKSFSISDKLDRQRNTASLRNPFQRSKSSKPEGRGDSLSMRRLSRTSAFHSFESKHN

Molecular target: mouse TRPM3α2 (mTRPM3) ion channel (Mus musculus, UniProt J9SQF3)
Experiment: TRPM3 ion channel driven Ca2+ uptake, Fluo-4 AM assay, mTRPM3alpha2 overexpressing flip-in HEK293 cells stimulated with pregnenolone sulfate (50 μM)
Conditions: mTRPM3 overexpressing HEK293 cells stimulated with pregnenolone sulfate (50 μM), activity ranges A, B, C
Protocol: Monitoring the TRPM3 Ion Channel Driven Ca2+ Uptake.
In order to monitor the inhibition of the mouse TRPM3α2 (mTRPM3) ion channel by the compounds of the invention, a cellular system making use of an mTRPM3alpha2 or hTRPM3 overexpressing cell line (flip-in HEK293) was used. The TRPM3 channel was stimulated/opened with Pregnenolone sulfate (PS) (50 μM) which results in Ca^2+ influx.
For mTRPM3, the intracellular Ca^2+ was measured with a Calcium responsive dye, Fluor-4 AM ester (Invitrogen). Cells were cultured until a confluence of 80-90%, washed with Versene (Invitrogen) and detached from the surface by a short incubation with 0.05% Trypsin (Invitrogen). The trypsination process was stopped by the addition of complete cell culture medium (DMEM, glutamax, 10% FCS, NEAA, Pen-Strep). Cells were collected and resuspended in Krebs buffer without Calcium at RT.
Prior the cell seeding (±2000 cells/well into a black, 384 well plate (Greiner)) the diluted compound was added in the assay plate, together with the PS dissolved in Krebs buffer containing Calcium. […] Directly after cell addition the plates were read on an Envision fluorescence reader (Perkin Elmer) by an Excitation of 485 nm and emission at 535 nm.
Channel inhibition was calculated compared to a non-PS stimulated control versus a condition stimulated with PS (50 μM) with vehicle. […]

Cn1nc2ccc(OCc3cccnc3C(F)(F)F)cc2c1C(=O)NC(C)(CO)C(N)=O (single isomer, unassigned)
pIC50: > 6.00

pIC50: −log10 of the molar value. Structures were worked out from names or drawings and are uncertain.
